Measurements: PubChem BioAssay AID328 (DTP/NCI, 2004)
The list is a part of this screen's results and no random one: it is rich in T/C values a quarter to a half above the control, in often repeated tests (any T/C) and in doses without a T/C. Further doses and runs are listed elsewhere. T/C is the treated group as % of the vehicle group. Some doses have a count of surviving animals in place of a T/C: the source holds a T/C of zero for them, seemingly a mark for toxic or unscored doses. Some doses without a T/C left all or most animals alive at the check, yet need not have been tolerated: the source hardly ever lists a survival T/C far under the control, and the zero likely stands for such cases as well. Counts of survivors are from the toxicity check (mostly the fifth day) where no day follows; animals may have died later. Schedule codes are those of the source, taken here to give the interval after Q, in days (D) or hours (H), and the number of doses after X. Where survival is the endpoint, this PubChem deposit counts one and a half times the control or more as active, and values a quarter to a half above the control carry no call in these data; other NCI protocols may use other cut-offs. Some doses were run more than once; the values are given in rising order. Some T/C values carry the count of animals alive at the toxicity check (mostly the fifth day); where none is given, no animal had died by that day.

System: BDF1 mice, P388 leukemia ip, median survival T/C
Assay: NCI In Vivo Anticancer Drug Screen. Data for tumor model P388 Leukemia (intraperitoneal) in B6D2F1 (BDF1) mice
Conditions: T/C endpoint: median survival time, higher T/C = longer survival
How it was run: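 Mice carrying the transplantable tumour receive compound or vehicle. Survival is followed in each arm, and the treated measure is divided by the vehicle measure.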

[1] = dose: 100.0 mg/kg/injection, schedule: Q01DX009 (ip), vehicle: saline with Tween-80
[2] = dose: 200.0 mg/kg/injection, schedule: Q01DX009 (ip), vehicle: saline with Tween-80
[3] = dose: 400.0 mg/kg/injection, schedule: Q01DX009 (ip), vehicle: saline with Tween-80
[4] = dose: 200.0 mg/kg/injection, schedule: Q04DX003 (ip), vehicle: saline with Tween-80
[5] = dose: 400.0 mg/kg/injection, schedule: Q04DX003 (ip), vehicle: Klucel (hydroxypropylcellulose) (HPC)
[6] = dose: 50.0 mg/kg/injection, schedule: Q01DX009 (ip), vehicle: saline
[7] = dose: 400.0 mg/kg/injection, schedule: Q01DX009 (ip), vehicle: Klucel (hydroxypropylcellulose) (HPC)
[8] = dose: 200.0 mg/kg/injection, schedule: Q01DX009 (ip), vehicle: saline

C[C@H]1C[C@H]2[C@@H]3CC[C@](O)(C(=O)CO)[C@@]3(C)C[C@H](O)[C@]2(F)[C@@]2(C)C=CC(=O)C=C12
survivor count [1]: 6 of 6
survivor count [2]: 5 of 6
survivor count [3]: 5 of 6

FC(F)(F)c1nc2nc(Br)c(Br)nc2[nH]1
survivor count [4]: 6 of 6
survivor count [3]: 4 of 6

COc1ccc2c(c1)CCC1C2=CC(=O)/C1=C\[O-].COc1ccc2c(c1)CCC1C2=CC(=O)/C1=C\[O-].[Cu+2] (stereo not given)
T/C (dose: 50.0 mg/kg/injection, schedule: Q04DX003 (ip), vehicle: saline with Tween-80): 145 % of control

CC(=O)Nc1c([N+](=O)[O-])ccc(Cl)c1Cl
survivor count (dose: 200.0 mg/kg/injection, schedule: Q04DX003 (ip), vehicle: Klucel (hydroxypropylcellulose) (HPC)): 3 of 6
survivor count [5]: 2 of 6

CC(=O)[O][Hg][c]1c(C)c(C)c(C)c(C)c1C
survivor count (dose: 25.0 mg/kg/injection, schedule: Q01DX009 (ip), vehicle: Klucel (hydroxypropylcellulose) (HPC)): 6 of 6
survivor count (dose: 50.0 mg/kg/injection, schedule: Q01DX009 (ip), vehicle: Klucel (hydroxypropylcellulose) (HPC)): 2 of 6

CNC(=S)N(N)c1ccccc1
survivor count (dose: 300.0 mg/kg/injection, schedule: Q01DX009 (ip), vehicle: Klucel (hydroxypropylcellulose) (HPC)): 4 of 6
survivor count [5]: 4 of 6

Cc1nnc(NC(=O)CCl)s1
T/C [6]: 127 and 131 % of control
T/C (dose: 75.0 mg/kg/injection, schedule: Q01DX009 (ip), vehicle: saline): 136 % of control
survivor count [7]: 1 of 3

CC(C#N)N(C)C (stereo not given)
survivor count (dose: 20.0 mg/kg/injection, schedule: Q01DX009 (ip), vehicle: saline): 2 of 6
survivor count (dose: 40.0 mg/kg/injection, schedule: Q01DX009 (ip), vehicle: saline): 0 of 6

CCCCOP(=O)(N1CC1CC)N1CC1CC (stereo not given)
T/C (dose: 300.0 mg/kg/injection, schedule: Q04DX003 (ip), vehicle: saline with Tween-80): 145 % of control

CC1OC(Oc2c(-c3cc(O)c(O)c(O)c3)oc3cc(O)cc(O)c3c2=O)C(O)C(O)C1O (stereo not given)
survivor count [2]: 5 of 6

CCC12C=CCN3CCC4(c5cc(C(CN6CCCCC6)c6cn(C)c7ccccc67)c(OC)cc5N(C)C4C(O)(C(=O)OC)C1OC(C)=O)C32 (stereo not given)
survivor count (dose: 64.0 mg/kg/injection, schedule: Q01DX009 (ip), vehicle: saline): 3 of 6
survivor count (dose: 128.0 mg/kg/injection, schedule: Q01DX009 (ip), vehicle: saline): 0 of 6

C[n+]1ccc(Nc2ccc(NC(=O)c3ccc(Nc4cc[n+](C)c5ccc(N)cc45)cc3)cc2)cc1
T/C (dose: 0.5 mg/kg/injection, schedule: Q01DX009 (ip), vehicle: Klucel (hydroxypropylcellulose) (HPC)): 144 % of control
T/C (dose: 1.0 mg/kg/injection, schedule: Q01DX009 (ip), vehicle: Klucel (hydroxypropylcellulose) (HPC)): 133 % of control
survivor count (dose: 12.0 mg/kg/injection, schedule: Q01DX009 (ip), vehicle: water): 3 of 8
survivor count (dose: 20.0 mg/kg/injection, schedule: Q01DX009 (ip), vehicle: water): 1 of 8

CN1C(=O)N(C)C(O)(/C=C/c2c(Cl)cccc2Cl)N(C)C1=O
T/C [6]: 148 % of control
T/C (dose: 100.0 mg/kg/injection, schedule: Q01DX009 (ip), vehicle: saline): 148 % of control
T/C [8]: 125 % of control

CC1(C)N=C(N)N=C(N)N1c1cccc(CN)c1
survivor count [8]: 0 of 6
survivor count (dose: 200.0 mg/kg/injection, schedule: Q04DX003 (ip), vehicle: saline): 2 of 6

N=[N+]=CC(=O)CCC(NC(=O)C(CCC(=O)C=[N+]=N)NC(=O)CCC(N)C(=O)O)C(=O)O (stereo not given)
T/C (dose: 0.05 mg/kg/injection, schedule: Q01DX009 (ip), vehicle: water): 127 % of control
T/C (dose: 0.1 mg/kg/injection, schedule: Q01DX009 (ip), vehicle: water): 145 % of control
T/C (dose: 0.1 mg/kg/injection, schedule: Q01DX010 (ip), vehicle: other): 140 % of control
T/C (dose: 0.25 mg/kg/injection, schedule: Q01DX005 (iv), vehicle: water): 145 % of control
survivor count (dose: 0.4 mg/kg/injection, schedule: Q01DX010 (ip), vehicle: water): 6 of 6
T/C (dose: 0.5 mg/kg/injection, schedule: Q01DX005 (iv), vehicle: water): 145 % of control
T/C (dose: 1.0 mg/kg/injection, schedule: Q01DX005 (iv), vehicle: water): 136 % of control
survivor count (dose: 1.2 mg/kg/injection, schedule: Q01DX010 (ip), vehicle: water): 6 of 6
survivor count (dose: 2.0 mg/kg/injection, schedule: Q01DX005 (iv), vehicle: water): 6 of 6
survivor count (dose: 3.0 mg/kg/injection, schedule: Q01DX005 (iv), vehicle: water): 6 of 6
survivor count (dose: 4.0 mg/kg/injection, schedule: Q01DX005 (iv), vehicle: water): 6 of 6
T/C (dose: 60.0 mg/kg/injection, schedule: Q04DX003 (ip), vehicle: water): 131 % of control
survivor count (dose: 200.0 mg/kg/injection, schedule: Q04DX003 (oral), vehicle: water): 4 of 6

O=NN(CCCl)C(=O)Nc1cc2c3ccccc3ccc2c2ccccc12
T/C (dose: 100.0 mg/kg/injection, schedule: Q01DX009 (ip), vehicle: Klucel (hydroxypropylcellulose) (HPC)): 137 % of control [5 of 6 alive]
T/C (dose: 200.0 mg/kg/injection, schedule: Q01DX009 (ip), vehicle: Klucel (hydroxypropylcellulose) (HPC)): 132 % of control
T/C [7]: 129 % of control [5 of 6 alive]

CCCCN(C)N=Nc1c(C(N)=O)n[nH]c1C
T/C (dose: 33.0 mg/kg/injection, schedule: Q01DX009 (ip), vehicle: saline with Tween-80): 136 % of control [5 of 6 alive]
T/C (dose: 50.0 mg/kg/injection, schedule: Q01DX009 (ip), vehicle: saline with Tween-80): 140 % of control
survivor count (dose: 75.0 mg/kg/injection, schedule: Q01DX009 (ip), vehicle: saline with Tween-80): 5 of 6
survivor count [1]: 5 of 6
survivor count (dose: 300.0 mg/kg/injection, schedule: Q04DX003 (ip), vehicle: Klucel (hydroxypropylcellulose) (HPC)): 2 of 6

OC12CCC[N+]1(Cc1ccccc1)CCC2 (stereo not given)
survivor count (dose: 50.0 mg/kg/injection, schedule: Q01DX010 (ip), vehicle: carboxymethylcellulose (CMC)): 6 of 6
survivor count (dose: 100.0 mg/kg/injection, schedule: Q01DX010 (ip), vehicle: carboxymethylcellulose (CMC)): 3 of 6

Fc1nc2nc(C(F)(F)F)[nH]c2nc1F
survivor count [4]: 2 of 6
survivor count (dose: 400.0 mg/kg/injection, schedule: Q04DX003 (ip), vehicle: saline with Tween-80): 0 of 6

O=C(C=C(C(F)(F)F)C(F)(F)F)c1cccc(Cl)c1
survivor count (dose: 25.0 mg/kg/injection, schedule: Q01DX009 (ip), vehicle: saline with Tween-80): 0 of 6

CN1CCN=C1c1ccc(NC(=O)c2ccc(C(=O)Nc3ccc(C4=NCCN4C)cc3)c(N)c2)cc1
T/C (dose: 1.3 mg/kg/injection, schedule: Q01DX009 (ip), vehicle: saline): 129 % of control

Cc1cc(NC(=O)Nc2ccc(C3=NCCN3)cc2)ccc1NC(=O)Nc1ccc(C2=NCCN2)cc1
T/C [2]: 145 % of control

Cn1c(=O)c2c(ncn2C)n(C)c1=O
survivor count (dose: 400.0 mg/kg/injection, schedule: Q01DX010 (ip), vehicle: saline): 0 of 6

O=P(OCc1ccccc1)(N(CCCl)CCCl)N1CCN(P(=O)(OCc2ccccc2)N(CCCl)CCCl)CC1 (stereo not given)
T/C (dose: 132.0 mg/kg/injection, schedule: Q04DX003 (ip), vehicle: saline with Tween-80): 131 % of control

COC(C)C(NC(=O)C1CCCN1C)C1OC(SCCOC(=O)c2ccccc2O)C(O)C(O)C1O (stereo not given)
T/C [8]: 126 % of control [2 of 3 alive]
survivor count [8]: 4 of 6
survivor count (dose: 400.0 mg/kg/injection, schedule: Q01DX009 (ip), vehicle: saline): 0 of 3

OC1C2CCC(CC2)C1O (stereo not given)
survivor count (dose: 4.5 mg/kg/injection, schedule: Q04DX003 (ip), vehicle: saline with Tween-80): 6 of 6
survivor count (dose: 18.0 mg/kg/injection, schedule: Q01DX009 (ip), vehicle: saline with Tween-80): 6 of 6
